Reference: publication PMC11063955, “A multiplexed time-resolved fluorescence resonance energy transfer ultrahigh-throughput screening assay for targeting the SMAD4–SMAD3–DNA complex” (Journal of Molecular Cell Biology, 2023)
These are yes or no findings as the source states them, for the method shown. Binding seen in cells or lysates may run through a third protein. Some binding calls cover weakened binding; strength is not graded here.

Protein sequences, listed by entry. Tags and fused reporters are not part of them. Residues count along the entry.
UniProt Q13485, residues 319-552: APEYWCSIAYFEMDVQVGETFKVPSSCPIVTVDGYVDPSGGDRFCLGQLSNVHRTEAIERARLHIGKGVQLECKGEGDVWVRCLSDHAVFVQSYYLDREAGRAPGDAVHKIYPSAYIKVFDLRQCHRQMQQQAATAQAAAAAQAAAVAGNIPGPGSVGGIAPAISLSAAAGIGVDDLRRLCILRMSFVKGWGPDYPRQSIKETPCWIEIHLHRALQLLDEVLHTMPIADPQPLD
UniProt P84022, residues 219-425: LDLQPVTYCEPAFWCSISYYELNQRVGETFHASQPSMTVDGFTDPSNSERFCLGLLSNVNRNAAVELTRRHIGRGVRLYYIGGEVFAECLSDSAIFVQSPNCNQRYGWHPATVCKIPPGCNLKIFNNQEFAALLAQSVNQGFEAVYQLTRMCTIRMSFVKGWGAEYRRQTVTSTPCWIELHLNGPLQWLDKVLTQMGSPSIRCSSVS

Molecular target: GST-SMAD4-MH2 (UniProt Q13485)
Experiment: pull-down; GST pull-down from lysates of HEK293T cells transfected with both partners; 1% NP-40 lysis buffer; lysates incubated with compounds (GA or GNA, or control) for 16 h at 4°C, then glutathione-conjugated beads 2 h at 4°C; western blot with anti-FLAG-HRP and anti-GST-HRP; no DNA oligonucleotides

- binding: binds
Substance: Venus-flag-SMAD3-MH2 (from UniProt P84022 219-425) (domain or fragment)
